Laboratory results taken from PubChem BioAssay AID540276 (National Center for Advancing Translational Sciences (NCATS), 2011).
Screen size: about 300,000 compounds; about 5,400 (1.8%) were called active. Inconclusive means that the source gave no clear call. Such entries were picked first, then a sample of the others. The call rests on the fitted dose curve; tested in HEK293 cells. A potency beside an inconclusive call is a rough fit, not a confirmed value.

Test: qHTS for inhibitors of binding or entry into cells for Marburg Virus
Conditions: Marburg virus pseudotyped entry inhibition, cell reporter; activity change, negative = inhibition: at 37.8 µM (top of the series) unless noted
On the % scale 0 is the no-effect control and ±100 the full control effect; potency means the concentration at half of the fitted maximal effect.

SMILES | Potency | activity change, negative = inhibition
CCCCn1c(O)c(C(CC)=NCCN2CCOCC2)c(=O)[nH]c1=O | inconclusive: 1.16 µM [inhibitor, single point] | –
CCOC(=O)COc1c(OC)cc(Cl)cc1C1Nc2ccccc2C(=O)N1c1cccc(C)c1 (configuration not stated) | – | inactive: -7.61%
O=C(N/N=C/c1ccc2c(c1)OCO2)c1cc(-c2ccncc2)nc2ccccc12 | inconclusive: 3.98 µM [inhibitor, full curve] | –
CCOc1cc(/C=C(/NC(C)=O)C(=O)O)cc(Cl)c1OCc1cccc(Br)c1 | – | inactive: -1.27% [at 46.1 µM]
O=C(Nc1ccc(S(=O)(=O)Nc2ccccc2)cc1)C1COc2ccccc2O1 (configuration not stated) | – | inactive: -19.5%
Cc1ccccc1Nc1nnc(SCC(=O)N(C)C2CCS(=O)(=O)C2)s1 (configuration not stated) | inconclusive: 12.6 µM [activator, partial curve, poor fit] | –
COc1ccccc1NC(=O)c1ccc(NC(=O)C2CC2C)cc1 (configuration not stated) | – | inactive: -10.4%
Cc1ccc(C)c(NC(=O)CCC(=O)N/N=C/c2cc([N+](=O)[O-])ccc2O)c1 | inconclusive: 14.1 µM [inhibitor, single point] | –
COc1ccc(CCn2c(C)cc(C(=O)CSc3nnnn3C)c2C)cc1 | – | inactive: 0.635%
COc1ccc(NC(=O)COc2ccccc2Cc2ccccc2)cn1 | inconclusive: 25.1 µM [inhibitor, partial curve, poor fit] | –
CC(C)N(C(=O)COC(=O)c1cccc(S(=O)(=O)N2CC3(C)CC2CC(C)(C)C3)c1)C(C)C (configuration not stated) | inconclusive: 35.5 µM [inhibitor, single point] | –
CCOC(=O)C1CCN(C(=O)c2ccc(OCC(=O)Nc3cccc(C(F)(F)F)c3)c(OC)c2)CC1 | inconclusive: 10 µM [inhibitor, partial curve, poor fit] | –
Cc1ccc(OCC(=O)NNC(=O)Cc2ccc(S(=O)(=O)N3CCOCC3)s2)cc1 | inconclusive: 10 µM [activator, partial curve, poor fit] | –
Cc1cc(Nc2ccccc2)nc(-c2ccccc2O)n1 | – | inactive: 2.19%
C=CCN1C2CCCC1CC(NC(=O)Nc1cccc(C(C)=O)c1)C2 (configuration not stated) | inconclusive: 14.1 µM [inhibitor, partial curve, poor fit] | –
CCCOc1c(OC)cccc1C1CC(=O)Nc2cc(OC)c(OC)c(OC)c21 (configuration not stated) | inconclusive: 7.08 µM [inhibitor, partial curve, poor fit] | –
Cc1cc(=O)oc2cc(O)c(N=Nc3ccccc3)cc12 | inconclusive: 2.24 µM [activator, partial curve, poor fit] | –
CCOC(=O)C1CCN(S(=O)(=O)c2ccc3[nH]c4c(c3c2)CCCC4)CC1 | – | inactive: 15.7% [at 46.1 µM]
Cn1cnc([N+](=O)[O-])c1Sc1ccc([N+](=O)[O-])cc1 | inconclusive: 10 µM [inhibitor, partial curve, poor fit] | –
COc1ccc(N2CCN(C(=O)CCn3c(=O)[nH]c4cc(OC)c(OC)cc4c3=O)CC2)cc1 | inconclusive: 11.2 µM [activator, single point] | –
Cc1ccc(N(CC2CO2)S(=O)(=O)c2ccc(C)cc2)cc1 (configuration not stated) | inconclusive: 35.5 µM [inhibitor, single point] | –
Cc1ccc(CN=c2c([N+](=O)[O-])nn(-c3ccc4c(c3)OCCO4)n2O)cc1 | inconclusive: 4.61 µM [activator, single point] | –
CCOC(=O)C1=C(O)/C(=C/c2cc(OC)c(OC)c(OC)c2)SC1=Nc1ccc(OC)cc1 | inconclusive: 7.94 µM [inhibitor, partial curve, poor fit] | –

SMILES | Potency | activity change, negative = inhibition
O=C(NC1CCCCC1)C(c1cccnc1)N(C(=O)c1csnn1)c1ccccc1 (configuration not stated) | – | inactive: -0.959% [at 46.1 µM]
CCn1c(SCC#N)nc2c(c1=O)C1(CCCC1)Cc1ccccc1-2 | inconclusive: 29.1 µM [inhibitor, single point] | –
CC1=CC(=O)N(c2cccc(C(F)(F)F)c2)C1c1ccc(Cl)cc1 (configuration not stated) | inconclusive: 13 µM [inhibitor, partial curve, poor fit] | –
CCOC(=O)C1CCN(C(=O)CSc2nccc(C)n2)CC1 | inconclusive: 35.5 µM [activator, single point] | –
Nc1cc(-c2cccc(Br)c2)nn1Cc1ccccc1 | inconclusive: 6.31 µM [inhibitor, full curve] | –
C[C@@H]1CC[C@H]2C(=O)N(Cc3ccccc3)C[C@H](O)CN2[C@H]1c1ccc(Br)cc1 | – | inactive: -24.2% [at 14.2 µM]
Cc1ccc(Nc2nnc(SCC(O)=C(C#N)c3nc4ccccc4[nH]3)s2)c(C)c1 | inconclusive: 35.5 µM [inhibitor, partial curve, poor fit] | –
O=S(=O)(/N=S1\CC=CCN1S(=O)(=O)c1ccccc1)c1ccccc1 (configuration not stated) | inconclusive: 12.6 µM [inhibitor, partial curve, poor fit] | –
CSCCC(NC(=O)COc1ccccc1)C(=O)OCCOc1ccc(Br)cc1 (configuration not stated) | inconclusive: 2.24 µM [inhibitor, full curve] | –
CC(Cl)C(=O)NNc1cccc(Cl)n1 (configuration not stated) | inconclusive: 0.708 µM [activator, full curve, poor fit] | –
Cc1nc2c(-c3ccc(F)cc3)cnn2c2c1CCC2 | inconclusive: 22.4 µM [activator, partial curve, poor fit] | –
Cc1cc(C)cc(NC(=S)/N=C(\N)Nc2nc(C)c3ccccc3n2)c1 | inconclusive: 20 µM [inhibitor, partial curve, poor fit] | –
Cc1nc2nncn2c(Nc2ccccc2)c1C | inconclusive: 6.31 µM [inhibitor, single point] | –
Cn1c(SCC(=O)c2ccccc2)nnc1-c1cnccn1 | inconclusive: 2.59 µM [activator, full curve] | –
COc1ccc(NS(=O)(=O)c2cccc(C(=O)NNC(=O)c3ccccc3OC)c2)cc1 | – | inactive: -16.3%
Cc1ccc(/C=C2\CCC(C3CCCC3)C2=O)cc1 (configuration not stated) | inconclusive: 1.26 µM [activator, single point] | –
CC(C)OC(=O)C1OC1(C)c1ccccc1 (configuration not stated) | – | inactive: -0.369%
COc1ccc(CC(=O)C2C(=O)N(C)c3ccccc32)cc1OC (configuration not stated) | – | inactive: 4.77%
CC(C)(C)Nc1c2ccccc2nc2ccccc12 | – | inactive: -9.87% [at 46.1 µM]
NS(=O)(=O)c1cccc(NC(=O)COc2ccc([N+](=O)[O-])cc2)c1 | – | inactive: -27.5% [at 46.1 µM]
Cc1c(C(=O)O)sc2ncn(C)c(=O)c12 | – | inactive: 10.9%
CCC1S/C(=N/N=C/c2ccco2)N(Cc2ccccc2)C1=O (configuration not stated) | inconclusive: 6.31 µM [inhibitor, partial curve, poor fit] | –
O=C(Cc1ncc(C(F)(F)F)cc1Cl)N1CCN(c2ccc(F)cc2)CC1 | inconclusive: 0.0164 µM [inhibitor, full curve, poor fit] | –

SMILES | Potency | activity change, negative = inhibition
CCc1cccc(CC)c1NC(=O)C(NS(=O)(=O)c1cccs1)c1ccccc1 (configuration not stated) | inconclusive: 28.2 µM [inhibitor, single point] | –
Nc1nc2c(s1)CCCCCCCCCC2 | inconclusive: 2.24 µM [inhibitor, full curve] | –
O=C1CCCC2=C1C(c1ccncc1)Nc1ccccc1N2 (configuration not stated) | – | inactive: 12.1% [at 46.1 µM]
Cc1ccc(NC(=S)/N=C(\N)Nc2nc(C)c3cc(C)ccc3n2)c(C)c1 | inconclusive: 35.5 µM [inhibitor, single point] | –
CCC12CN(C(=O)c3ccc(C)cc3)CC(CC)(CN(C(=O)c3ccc(C)cc3)C1)C2=O | inconclusive: 2.51 µM [inhibitor, partial curve, poor fit] | –
c1cc2c(cc1CCNC1CCCCCC1)OCO2 | inconclusive: 35.5 µM [inhibitor, single point] | –
Cc1ccc(-c2nn(CC(=O)Nc3ccc4c(c3)nc3n4CCOC3)c(=O)c3ccccc23)cc1 | inconclusive: 11.6 µM [inhibitor, partial curve, poor fit] | –
COC(=O)c1cc2sc(Cl)cc2n1Cc1c(C)cc(C)cc1C | – | inactive: 11.8% [at 46.1 µM]
O=C(NNC(=O)C1CCN(S(=O)(=O)c2ccc(Cl)cc2)CC1)c1ccccc1 | inconclusive: 0.731 µM [activator, single point] | –
OCC1(Cc2ccccc2)CCN(Cc2cnn(-c3ccccc3F)c2)CC1 | inconclusive: 35.5 µM [inhibitor, single point] | –
CCOc1ccc(NC(=O)CN2CCN(CC(=O)Nc3ccc(F)c(F)c3)CC2)cc1 | inconclusive: 35.5 µM [activator, single point] | –
Cc1cc(Br)cc2c(C(=O)Nc3c(C)n(C)n(-c4ccccc4)c3=O)cc(-c3cccs3)nc12 | active: 6.51 µM | –
Cc1ccc2c(n1)sc1c(N)ncnc12 | inconclusive: 8.91 µM [inhibitor, partial curve] | –
O=C(c1noc2c1CCc1ccccc1-2)N1CCc2ccccc2C1 | – | inactive: 0.385%
CC(=O)c1ccccc1OCC(O)CN1CCN(CCN2C(=O)c3cccc4cccc(c34)C2=O)CC1 (configuration not stated) | inconclusive: 4.47 µM [inhibitor, full curve] | –
Cc1c(CCC(=O)O)c(=O)oc2cc3occ(-c4ccc(F)cc4)c3cc12 | inconclusive: 22.4 µM [inhibitor, single point] | –
O=C(COc1ccccc1F)N1c2ccccc2CCc2ccccc21 | inconclusive: 25.9 µM [inhibitor, single point] | –
CCC(C)NCCOCCOc1ccc(C)cc1Br (configuration not stated) | inconclusive: 16.4 µM [inhibitor, single point] | –
O=C(Cc1ccc(Cl)cc1)Nc1ncccn1 | – | inactive: 21.2% [at 46.1 µM]
CCOC(=O)CN1C(=O)[C@]2(O[C@H](C)CC3=CCCC32)c2c(Br)cccc21 (some centres not stated) | inconclusive: 6.68 µM [inhibitor, single point] | –
CN1C2CCC1CC(NS(=O)(=O)c1cccc(C(F)(F)F)c1)C2 (configuration not stated) | inconclusive: 35.5 µM [inhibitor, single point] | –

A draw from above in order of heavy-atom count, largest number first.
SMILES | Potency | activity change, negative = inhibition
CCC12CN(C(=O)c3ccc(C)cc3)CC(CC)(CN(C(=O)c3ccc(C)cc3)C1)C2=O | inconclusive: 2.51 µM [inhibitor, partial curve, poor fit] | –
Cc1c(CCC(=O)O)c(=O)oc2cc3occ(-c4ccc(F)cc4)c3cc12 | inconclusive: 22.4 µM [inhibitor, single point] | –
CN1C2CCC1CC(NS(=O)(=O)c1cccc(C(F)(F)F)c1)C2 (configuration not stated) | inconclusive: 35.5 µM [inhibitor, single point] | –
O=C1CCCC2=C1C(c1ccncc1)Nc1ccccc1N2 (configuration not stated) | – | inactive: 12.1% [at 46.1 µM]
CCC(C)NCCOCCOc1ccc(C)cc1Br (configuration not stated) | inconclusive: 16.4 µM [inhibitor, single point] | –
